The list shows a part of the results.
Compound: Cc1cc(ccc1-c1ccccc1)C(=O)N1CCCN(CC1)C(=O)CCl [compound 10]
Assay: probe-labelled cysteine peptide fold change vs DMSO (competition) (log2 fold change); higher = less target engagement (more negative = stronger competition)
Conditions: THP-1, incubation time: 4 h
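Further: competitive profiling in live THP-1 cells: cysteine peptides tagged with an iodoacetamide desthiobiotin (IA-DTB) probe, intensity after compound treatment relative to DMSO-treated cells.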

Chains of the proteins cited; added tags and fusions are not shown. Lines headed by an entry give the natural chain unless they say otherwise; changes in a name come on top.
UniProt P04843: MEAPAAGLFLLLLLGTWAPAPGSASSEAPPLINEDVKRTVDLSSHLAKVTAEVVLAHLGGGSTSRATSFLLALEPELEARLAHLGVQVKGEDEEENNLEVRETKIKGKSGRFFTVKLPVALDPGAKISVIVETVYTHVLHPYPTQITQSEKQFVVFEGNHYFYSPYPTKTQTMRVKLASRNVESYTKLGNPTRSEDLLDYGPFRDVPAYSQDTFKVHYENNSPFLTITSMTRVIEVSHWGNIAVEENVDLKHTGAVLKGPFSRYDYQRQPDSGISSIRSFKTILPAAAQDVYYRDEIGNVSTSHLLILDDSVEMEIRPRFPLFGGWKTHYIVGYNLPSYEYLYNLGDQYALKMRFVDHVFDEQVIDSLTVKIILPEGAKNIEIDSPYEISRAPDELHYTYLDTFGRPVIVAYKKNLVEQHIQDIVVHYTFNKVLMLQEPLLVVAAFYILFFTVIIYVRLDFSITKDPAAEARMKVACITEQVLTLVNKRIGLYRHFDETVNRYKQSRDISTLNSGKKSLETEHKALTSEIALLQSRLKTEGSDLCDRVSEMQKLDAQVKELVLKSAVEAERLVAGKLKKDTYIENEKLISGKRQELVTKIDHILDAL
UniProt Q96EP0: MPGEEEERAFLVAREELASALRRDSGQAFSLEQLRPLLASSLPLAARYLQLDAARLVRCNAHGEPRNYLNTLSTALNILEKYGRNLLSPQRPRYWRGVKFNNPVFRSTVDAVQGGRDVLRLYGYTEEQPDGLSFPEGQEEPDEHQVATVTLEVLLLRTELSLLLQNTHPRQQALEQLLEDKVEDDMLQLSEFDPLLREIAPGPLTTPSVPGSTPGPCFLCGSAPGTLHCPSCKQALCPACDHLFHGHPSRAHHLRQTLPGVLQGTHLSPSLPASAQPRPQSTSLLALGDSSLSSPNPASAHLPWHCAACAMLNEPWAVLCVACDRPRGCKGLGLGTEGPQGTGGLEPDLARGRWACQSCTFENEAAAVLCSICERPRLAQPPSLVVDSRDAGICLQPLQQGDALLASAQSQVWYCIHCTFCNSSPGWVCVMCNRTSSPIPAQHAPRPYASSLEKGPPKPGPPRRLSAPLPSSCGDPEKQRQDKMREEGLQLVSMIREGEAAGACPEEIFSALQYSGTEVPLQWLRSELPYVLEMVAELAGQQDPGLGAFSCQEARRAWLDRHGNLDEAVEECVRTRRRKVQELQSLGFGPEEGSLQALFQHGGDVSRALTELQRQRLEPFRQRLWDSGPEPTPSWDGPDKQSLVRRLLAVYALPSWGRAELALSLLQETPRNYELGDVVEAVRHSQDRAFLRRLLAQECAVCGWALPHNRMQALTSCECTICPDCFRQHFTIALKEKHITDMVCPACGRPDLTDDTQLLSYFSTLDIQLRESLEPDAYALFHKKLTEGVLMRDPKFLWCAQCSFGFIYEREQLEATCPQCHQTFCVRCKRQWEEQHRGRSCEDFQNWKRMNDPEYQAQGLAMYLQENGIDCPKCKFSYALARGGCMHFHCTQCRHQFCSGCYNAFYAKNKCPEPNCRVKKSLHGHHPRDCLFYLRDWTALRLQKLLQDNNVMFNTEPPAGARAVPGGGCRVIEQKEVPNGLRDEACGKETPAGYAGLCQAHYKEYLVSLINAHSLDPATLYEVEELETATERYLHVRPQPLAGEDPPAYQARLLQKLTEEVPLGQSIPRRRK
UniProt O75818: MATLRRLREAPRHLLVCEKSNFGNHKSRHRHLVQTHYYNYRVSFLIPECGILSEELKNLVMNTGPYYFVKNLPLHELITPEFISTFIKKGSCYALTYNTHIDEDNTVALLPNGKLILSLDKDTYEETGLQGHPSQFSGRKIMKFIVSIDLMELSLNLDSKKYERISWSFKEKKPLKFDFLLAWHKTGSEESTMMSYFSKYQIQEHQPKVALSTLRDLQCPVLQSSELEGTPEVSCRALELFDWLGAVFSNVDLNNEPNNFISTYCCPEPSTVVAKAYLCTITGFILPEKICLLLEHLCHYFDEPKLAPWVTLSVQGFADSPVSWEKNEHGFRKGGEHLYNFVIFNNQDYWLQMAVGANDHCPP
UniProt Q9H6T3, whole entry, looked up: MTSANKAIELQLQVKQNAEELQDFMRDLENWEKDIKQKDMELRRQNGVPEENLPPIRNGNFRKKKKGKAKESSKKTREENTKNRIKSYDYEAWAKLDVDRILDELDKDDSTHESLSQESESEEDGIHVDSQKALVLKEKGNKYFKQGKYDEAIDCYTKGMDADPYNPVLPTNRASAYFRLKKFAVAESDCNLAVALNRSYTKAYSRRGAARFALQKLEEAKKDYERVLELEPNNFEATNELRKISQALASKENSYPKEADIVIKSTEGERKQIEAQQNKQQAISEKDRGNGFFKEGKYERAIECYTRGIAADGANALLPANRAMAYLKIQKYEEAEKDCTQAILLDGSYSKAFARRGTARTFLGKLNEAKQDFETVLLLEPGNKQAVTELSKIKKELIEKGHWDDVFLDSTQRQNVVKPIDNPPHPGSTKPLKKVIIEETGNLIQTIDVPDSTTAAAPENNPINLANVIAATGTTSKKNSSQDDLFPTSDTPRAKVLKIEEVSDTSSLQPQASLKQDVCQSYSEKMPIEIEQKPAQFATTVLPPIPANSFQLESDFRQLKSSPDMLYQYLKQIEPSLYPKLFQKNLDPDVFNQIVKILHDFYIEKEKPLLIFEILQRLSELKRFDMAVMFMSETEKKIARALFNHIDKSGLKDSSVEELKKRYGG
UniProt Q9NQG5: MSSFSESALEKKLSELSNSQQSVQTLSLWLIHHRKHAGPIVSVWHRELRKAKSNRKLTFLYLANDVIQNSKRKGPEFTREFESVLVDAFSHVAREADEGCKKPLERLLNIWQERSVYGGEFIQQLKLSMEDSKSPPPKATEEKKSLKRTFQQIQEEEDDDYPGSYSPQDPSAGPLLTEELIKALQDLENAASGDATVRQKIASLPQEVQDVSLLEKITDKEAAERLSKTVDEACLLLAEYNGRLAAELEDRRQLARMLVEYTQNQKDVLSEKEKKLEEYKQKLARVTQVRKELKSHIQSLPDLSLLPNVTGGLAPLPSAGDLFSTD
UniProt P78345: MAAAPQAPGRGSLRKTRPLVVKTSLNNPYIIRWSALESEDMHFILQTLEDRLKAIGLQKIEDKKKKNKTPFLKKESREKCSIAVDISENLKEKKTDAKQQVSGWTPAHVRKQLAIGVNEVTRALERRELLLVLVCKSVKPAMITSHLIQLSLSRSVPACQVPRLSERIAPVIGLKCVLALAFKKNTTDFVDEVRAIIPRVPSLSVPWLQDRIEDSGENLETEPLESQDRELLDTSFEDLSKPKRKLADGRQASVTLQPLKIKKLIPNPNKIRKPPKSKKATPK
UniProt P35244: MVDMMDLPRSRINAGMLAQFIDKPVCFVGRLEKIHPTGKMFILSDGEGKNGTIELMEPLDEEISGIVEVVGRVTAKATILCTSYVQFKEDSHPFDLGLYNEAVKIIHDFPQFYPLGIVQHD
UniProt Q96P16: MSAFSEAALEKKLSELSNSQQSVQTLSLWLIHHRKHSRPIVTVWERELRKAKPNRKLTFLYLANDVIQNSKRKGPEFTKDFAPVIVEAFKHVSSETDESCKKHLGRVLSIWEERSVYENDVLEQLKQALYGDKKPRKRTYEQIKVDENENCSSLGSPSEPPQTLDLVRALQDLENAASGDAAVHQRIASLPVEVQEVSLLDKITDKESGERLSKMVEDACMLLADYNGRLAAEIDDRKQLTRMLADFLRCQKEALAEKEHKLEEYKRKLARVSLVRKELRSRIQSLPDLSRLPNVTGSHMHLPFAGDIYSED
UniProt Q9H4A4: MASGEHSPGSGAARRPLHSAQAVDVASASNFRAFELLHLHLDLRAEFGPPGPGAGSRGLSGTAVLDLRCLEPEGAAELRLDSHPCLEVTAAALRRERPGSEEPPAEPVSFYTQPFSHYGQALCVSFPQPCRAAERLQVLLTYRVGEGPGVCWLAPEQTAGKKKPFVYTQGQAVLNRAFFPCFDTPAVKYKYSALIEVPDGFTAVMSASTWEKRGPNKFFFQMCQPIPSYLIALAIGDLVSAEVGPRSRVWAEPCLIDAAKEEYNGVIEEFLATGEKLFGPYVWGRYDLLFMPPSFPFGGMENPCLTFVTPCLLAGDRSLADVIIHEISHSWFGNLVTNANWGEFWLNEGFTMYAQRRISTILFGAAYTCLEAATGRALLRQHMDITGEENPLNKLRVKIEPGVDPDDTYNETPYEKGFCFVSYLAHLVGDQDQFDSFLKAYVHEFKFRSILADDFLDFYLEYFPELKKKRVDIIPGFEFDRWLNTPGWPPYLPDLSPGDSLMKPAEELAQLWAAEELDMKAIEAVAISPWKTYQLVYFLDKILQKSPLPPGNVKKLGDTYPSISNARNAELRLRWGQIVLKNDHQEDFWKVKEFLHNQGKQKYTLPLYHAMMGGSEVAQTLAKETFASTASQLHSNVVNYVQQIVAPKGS
UniProt Q9H7B2: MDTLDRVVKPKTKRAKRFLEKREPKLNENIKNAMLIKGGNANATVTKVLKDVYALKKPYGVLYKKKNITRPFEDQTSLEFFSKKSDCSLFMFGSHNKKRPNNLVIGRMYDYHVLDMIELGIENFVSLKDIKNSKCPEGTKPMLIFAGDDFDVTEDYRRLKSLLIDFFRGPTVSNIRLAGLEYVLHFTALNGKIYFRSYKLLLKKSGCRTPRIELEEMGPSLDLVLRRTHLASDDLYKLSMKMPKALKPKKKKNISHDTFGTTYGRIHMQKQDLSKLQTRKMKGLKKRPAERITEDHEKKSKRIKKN
UniProt Q9BY78: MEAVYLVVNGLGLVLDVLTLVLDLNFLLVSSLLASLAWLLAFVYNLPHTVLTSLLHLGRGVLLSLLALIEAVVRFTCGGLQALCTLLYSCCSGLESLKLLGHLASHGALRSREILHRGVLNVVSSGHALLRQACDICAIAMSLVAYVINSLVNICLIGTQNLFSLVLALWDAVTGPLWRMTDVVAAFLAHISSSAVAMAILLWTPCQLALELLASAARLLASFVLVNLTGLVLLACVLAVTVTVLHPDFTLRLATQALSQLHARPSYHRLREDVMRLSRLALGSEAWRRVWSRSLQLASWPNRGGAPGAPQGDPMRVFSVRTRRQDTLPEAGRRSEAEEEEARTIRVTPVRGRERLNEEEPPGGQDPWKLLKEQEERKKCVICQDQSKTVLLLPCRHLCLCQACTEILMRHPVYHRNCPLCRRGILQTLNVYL
UniProt P27694, whole entry, looked up: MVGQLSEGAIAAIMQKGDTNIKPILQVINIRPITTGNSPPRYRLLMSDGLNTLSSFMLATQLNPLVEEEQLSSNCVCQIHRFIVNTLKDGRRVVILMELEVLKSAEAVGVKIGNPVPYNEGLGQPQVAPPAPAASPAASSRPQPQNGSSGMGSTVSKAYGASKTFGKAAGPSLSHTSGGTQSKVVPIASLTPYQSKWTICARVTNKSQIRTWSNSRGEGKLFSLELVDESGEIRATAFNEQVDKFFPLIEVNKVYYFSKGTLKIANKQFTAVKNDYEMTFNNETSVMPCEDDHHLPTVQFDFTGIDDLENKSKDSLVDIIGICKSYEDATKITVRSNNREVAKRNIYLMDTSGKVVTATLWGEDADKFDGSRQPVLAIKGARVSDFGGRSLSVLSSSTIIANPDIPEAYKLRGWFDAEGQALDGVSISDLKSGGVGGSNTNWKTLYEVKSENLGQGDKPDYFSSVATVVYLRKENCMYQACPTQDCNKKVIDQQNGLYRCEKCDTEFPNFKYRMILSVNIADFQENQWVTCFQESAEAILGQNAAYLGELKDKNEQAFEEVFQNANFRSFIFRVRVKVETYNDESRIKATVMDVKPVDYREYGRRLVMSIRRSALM

| Target | probe-labelled cysteine peptide fold change (10 µM) | probe-labelled cysteine peptide fold change (50 µM) |
| --- | --- | --- |
| ROCK1_Q13464_714_SVAMCEMEK (UniProt Q13464) | -0.131 | -0.304 |
| RPL18A_Q02543_22_CHTPPLYR (UniProt Q02543) | -0.0224 | -0.256 |
| RPN1_P04843_477_VACITEQVLTLVNKR (UniProt P04843) | -0.189 | -0.7 |
| RNH1_P13489_323_SCSFTAACCSHFSSVLAQNR (UniProt P13489) | 0.304 | 0.0048 |
| RNF31_Q96EP0_898+901_HQFCSGCYNAFYAK (UniProt Q96EP0) | -0.0769 | -0.572 |
| RPP40_O75818_219+235_DLQCPVLQSSELEGTPEVSCR (UniProt O75818) | -0.39 | -0.857 |
| RNH1_P13489_95+102_IQKLSLQNCCLTGAGCGVLSSTLR (UniProt P13489) | 0.0329 | -0.0215 |
| RPS11_P62280_131_DVQIGDIVTVGECR (UniProt P62280) | 0.0549 | 0.235 |
| RPAP3_Q9H6T3_519_QDVCQSYSEK (UniProt Q9H6T3) | -0.27 | -0.178 |
| RNH1_P13489_409_ELDLSNNCLGDAGILQLVESVR (UniProt P13489) | 0.0663 | 0.162 |
| RPL37A_P61513_57+60_AVGIWHCGSCMK (UniProt P61513) | -0.116 | -0.311 |
| RPLP0_P05388_27_CFIVGADNVGSK (UniProt P05388) | 0.0238 | 0.0907 |
| RNH1_P13489_216_LESCGVTSDNCR (UniProt P13489) | 0.131 | -0.00068 |
| RPRD1B_Q9NQG5_100_EADEGCK (UniProt Q9NQG5) | 0.0226 | -0.00306 |
| RNH1_P13489_102_LSLQNCCLTGAGCGVLSSTLR (UniProt P13489) | 0.0289 | 0.0632 |
| RPP38_P78345_159_SVPACQVPR (UniProt P78345) | -0.121 | -0.0129 |
| RPA3_P35244_81_ATILCTSYVQFK (UniProt P35244) | 0.25 | 0.383 |
| RPL24_P83731_6_VELCSFSGYK (UniProt P83731) | 0.129 | 0.092 |
| RNF213_Q63HN8_3854_WNHELAGCEMTLDAFAAMACTEMLTR (UniProt Q63HN8) | -0.0959 | -0.244 |
| RPAP3_Q9H6T3_190_FAVAESDCNLAVALNR (UniProt Q9H6T3) | 0.0942 | 0.128 |

| Target | probe-labelled cysteine peptide fold change (10 µM) | probe-labelled cysteine peptide fold change (50 µM) |
| --- | --- | --- |
| RNH1_P13489_323+330_SCSFTAACCSHFSSVLAQNR (UniProt P13489) | -0.0759 | -0.562 |
| RNH1_P13489_220_DLCGIVASK (UniProt P13489) | -0.0742 | -0.16 |
| RNH1_P13489_380+387_VLWLADCDVSDSSCSSLAATLLANHSLR (UniProt P13489) | -0.0616 | -0.446 |
| RPRD1A_Q96P16_151_VDENENCSSLGSPSEPPQTLDLVR (UniProt Q96P16) | -0.0309 | -0.00533 |
| RNH1_P13489_142_TLPTLQELHLSDNLLGDAGLQLLCEGLLDPQCR (UniProt P13489) | 0.328 | 0.336 |
| RNPEP_Q9H4A4_85_LDSHPCLEVTAAALR (UniProt Q9H4A4) | -0.0148 | 0.078 |
| RPL28_P46779_13_NCSSFLIKR (UniProt P46779) | -0.103 | -0.742 |
| RPL4_P36578_208_RGPCIIYNEDNGIIK (UniProt P36578) | -0.185 | -0.108 |
| RPL4_P36578_250_FCIWTESAFR (UniProt P36578) | -0.0866 | 0.0436 |
| RPL17_P18621_144_INPYMSSPCHIEMILTEK (UniProt P18621) | 0.211 | -0.393 |
| RPF2_Q9H7B2_135_CPEGTK (UniProt Q9H7B2) | -0.136 | 0.605 |
| RPL14_P50914_42_ALVDGPCTQVR (UniProt P50914) | -0.129 | -0.00653 |
| RPL3_P39023_336_GCVVGTK (UniProt P39023) | -0.0479 | 0.152 |
| RNF26_Q9BY78_401_HLCLCQACTEILMR (UniProt Q9BY78) | -0.368 | -0.0613 |
| RNF213_Q63HN8_3192_SIVEELCAWVEK (UniProt Q63HN8) | 0.159 | 0.352 |
| RNF213_Q63HN8_2503_EVLCDHMVDGQPLAEDSGLHIIAACNPYRK (UniProt Q63HN8) | 0.0517 | -0.149 |
| RNF213_Q63HN8_1156_CVDSLLK (UniProt Q63HN8) | -0.0256 | 0.09 |
| RNF213_Q63HN8_2809_QVHLVSFQCSPHSTPQGIISTFR (UniProt Q63HN8) | 0.305 | 0.315 |
| RPA1_P27694_486_ENCMYQACPTQDCNKK (UniProt P27694) | -0.0785 | -0.0768 |

In another format: entries from further up.
Target	probe-labelled cysteine peptide fold change (10 µM)	probe-labelled cysteine peptide fold change (50 µM)
RNF31_Q96EP0_898+901_HQFCSGCYNAFYAK (UniProt Q96EP0)	-0.0769	-0.572
RPLP0_P05388_27_CFIVGADNVGSK (UniProt P05388)	0.0238	0.0907
RPRD1B_Q9NQG5_100_EADEGCK (UniProt Q9NQG5)	0.0226	-0.00306
RPAP3_Q9H6T3_190_FAVAESDCNLAVALNR (UniProt Q9H6T3)	0.0942	0.128
RPRD1A_Q96P16_151_VDENENCSSLGSPSEPPQTLDLVR (UniProt Q96P16)	-0.0309	-0.00533
RPL17_P18621_144_INPYMSSPCHIEMILTEK (UniProt P18621)	0.211	-0.393
RNF26_Q9BY78_401_HLCLCQACTEILMR (UniProt Q9BY78)	-0.368	-0.0613
